# Experimental data as given in EP4389150A1 (Technische Universität München, priority 2022, dated 2024).
# Test: general procedure: Fmoc solid-phase peptide synthesis; 2-CTC resin (0.97 mmol/g)
# Conditions: conjugation step
substance,measurement,value
DOTAGA-n-Lys(Ruc-Sub)-n-Asp-β-Ala-TXA-L-Nal-KuE,conjugation yield,24%
